Assay results as given in US20180243325A1, “METHOD FOR INHIBITING ABSORPTION OF AND/OR PROMOTING EXCRETION OF LIPIDS USING D-PSICOSE” (CJ CHEILJEDANG CORPORATION, priority 2015, published 2018).

System: high-fat diet-induced obese mice
Assay: Body weight, organ weight and adipose tissue weight of high-fat diet-induced obese mice
Assay type: in vivo, C57BL/6J mice
Settings: HFD+5% w/w in diet, pair feeding based on PSI group
Procedure: First, 4-week-old male C57BL/6J mice (60 total) were purchased from Jackson Laboratory. The animals were acclimated to the vivarium in a thermo-hygrostat (20-23° C., 45-65%) under a 12 h light/dark cycle and fed a pelletized commercial non-purified diet for 1 week after arrival. The mice were then randomly divided into 6 groups (n=10) and fed the respective experimental diets for 16 weeks: normal diet group (ND, American Institute of Nutrition (AIN)-76 semi-synthetic diet), high-fat diet group (HFD, 20% fat+1% cholesterol based on AIN-76 diet), PSI group (HFD+5% D-psicose, w/w, Sigma Chemical Company), ERY group (HFD+5% erythritol, w/w, Sigma Chemical Company), GLU group (HFD+5% D-glucose, w/w, Sigma Chemical Company), and FRU group (HFD+5% D-fructose, w/w, Sigma Chemical Company). All high-fat diet-fed groups were allowed to ingest the same calories by pair feeding based on the PSI group. The mice had ad libitum access to distilled water during the experimental period. Their feed intakes and body weights were measured daily and biweekly, respectively. The organ weights and the adipose tissue weights of the mice were measured after sacrificing the animals.

| SMILES | Energy Intake [kcal/day] | Food Intake [g/day] |
| --- | --- | --- |
| OC[C@@H](O)[C@@H](O)CO [ERY, erythritol] | 13.88 | 3.17 |
| O=C(CO)[C@@H](O)[C@H](O)[C@H](O)CO [FRU, D-fructose] | 13.88 | 3.03 |
| O=C[C@H](O)[C@@H](O)[C@H](O)[C@H](O)CO [GLU, D-glucose] | 13.88 | 3.03 |
| O=C(CO)[C@H](O)[C@H](O)[C@H](O)CO [PSI, D-psicose] | 13.88 | 3.17 |
